Our source for the binding values is article PMC11165425.

What all share (test): affinity purification with mass spectrometry; IP-SILAC: GFP-Trap beads on whole-cell extracts of HEK293 Flp-In T-REx cells (GFP-SRP19, GFP-SRP9, GFP-SRP14) or U2OS Flp-In T-REx cells (GFP-SRP72) induced 3 h, against parental cells; HNT buffer (20 mM Hepes pH 7.4, 150 mM NaCl, 0.5% Triton X-100), 1.5 h at 4°C; positive: SILAC ratio above 1
Assay [1] deals with T1, GFP-SRP72 (human) (UniProt O76094).
T1 sequence: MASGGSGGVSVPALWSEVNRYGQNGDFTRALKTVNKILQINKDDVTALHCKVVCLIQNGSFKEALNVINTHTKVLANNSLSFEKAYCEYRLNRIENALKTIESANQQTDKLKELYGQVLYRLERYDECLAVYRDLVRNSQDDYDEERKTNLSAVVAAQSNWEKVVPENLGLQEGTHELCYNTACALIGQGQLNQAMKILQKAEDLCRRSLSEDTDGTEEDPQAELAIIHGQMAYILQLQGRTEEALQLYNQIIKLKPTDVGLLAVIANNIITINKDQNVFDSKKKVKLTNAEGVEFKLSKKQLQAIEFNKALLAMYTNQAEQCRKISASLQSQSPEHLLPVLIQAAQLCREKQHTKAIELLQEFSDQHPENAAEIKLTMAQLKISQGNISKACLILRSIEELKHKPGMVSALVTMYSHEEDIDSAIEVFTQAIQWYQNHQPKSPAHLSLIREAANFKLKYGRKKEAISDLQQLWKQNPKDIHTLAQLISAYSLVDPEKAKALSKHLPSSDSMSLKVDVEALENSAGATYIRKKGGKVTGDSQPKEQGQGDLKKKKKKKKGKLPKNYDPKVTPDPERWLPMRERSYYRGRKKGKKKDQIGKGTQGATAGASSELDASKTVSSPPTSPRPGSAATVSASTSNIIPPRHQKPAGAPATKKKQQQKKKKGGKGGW

Assay [2] has as its target GFP-SRP9 (human) (UniProt P49458).
For assay [3], the target named is GFP-SRP14 (human) (UniProt P37108).
Assay [4] deals with T2, GFP-SRP19 (human) (UniProt P09132).
T2 sequence: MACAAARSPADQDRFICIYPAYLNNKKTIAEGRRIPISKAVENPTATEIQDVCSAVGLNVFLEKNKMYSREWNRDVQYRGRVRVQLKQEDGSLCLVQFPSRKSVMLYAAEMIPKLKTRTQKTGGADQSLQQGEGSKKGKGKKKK

No constants are given. Whether binding was seen depends on the method and setting. Binding seen in cells or lysates may run through a third protein. A yes stands for co-enrichment or nearness to the bait. Other partners may have been found. Where a sequence is shown, tags or fusion partners need not be part of it.

B1: SRP19 (protein, UniProt P09132 1-144)
chain: MACAAARSPADQDRFICIYPAYLNNKKTIAEGRRIPISKAVENPTATEIQDVCSAVGLNVFLEKNKMYSREWNRDVQYRGRVRVQLKQEDGSLCLVQFPSRKSVMLYAAEMIPKLKTRTQKTGGADQSLQQGEGSKKGKGKKKK
For the molecule B1, the values for the binding entry in assay [1] and in assay [2] were “binds” and “binds weakly”, respectively.

B2: SRβ (protein, UniProt Q9Y5M8 1-271)
chain: MASADSRRVADGGGAGGTFQPYLDTLRQELQQTDPTLLSVVVAVLAVLLTLVFWKLIRSRRSSQRAVLLVGLCDSGKTLLFVRLLTGLYRDTQTSITDSCAVYRVNNNRGNSLTLIDLPGHESLRLQFLERFKSSARAIVFVVDSAAFQREVKDVAEFLYQVLIDSMGLKNTPSFLIACNKQDIAMAKSAKLIQQQLEKELNTLRVTRSAAPSTLDSSSTAPAQLGKKGKEFEFSQLPLKVEFLECSAKGGRGDVGSADIQDLEKWLAKIA
On to B2, for which the binding result in assay [3], in assay [4], in assay [1] and in assay [2] was “binds” each time.

B3: SRP68 (protein, UniProt Q9UHB9 1-627)
chain: MAAEKQVPGGGGGGGSGGGGGSGGGGSGGGRGAGGEENKENERPSAGSKANKEFGDSLSLEILQIIKESQQQHGLRHGDFQRYRGYCSRRQRRLRKTLNFKMGNRHKFTGKKVTEELLTDNRYLLLVLMDAERAWSYAMQLKQEANTEPRKRFHLLSRLRKAVKHAEELERLCESNRVDAKTKLEAQAYTAYLSGMLRFEHQEWKAAIEAFNKCKTIYEKLASAFTEEQAVLYNQRVEEISPNIRYCAYNIGDQSAINELMQMRLRSGGTEGLLAEKLEALITQTRAKQAATMSEVEWRGRTVPVKIDKVRIFLLGLADNEAAIVQAESEETKERLFESMLSECRDAIQVVREELKPDQKQRDYILEGEPGKVSNLQYLHSYLTYIKLSTAIKRNENMAKGLQRALLQQQPEDDSKRSPRPQDLIRLYDIILQNLVELLQLPGLEEDKAFQKEIGLKTLVFKAYRCFFIAQSYVLVKKWSEALVLYDRVLKYANEVNSDAGAFKNSLKDLPDVQELITQVRSEKCSLQAAAILDANDAHQTETSSSQVKDNKPLVERFETFCLDPSLVTKQANLVHFPPGFQPIPCKPLFFDLALNHVAFPPLEDKLEQKTKSGLTGYIKGIFGFRS
Turning to B3, the results for the binding entry in assay [4], in assay [1] and in assay [2] were “binds”, “binds” and “binds weakly”, respectively.

B4: SRP72 (protein, UniProt O76094 1-671)
chain: MASGGSGGVSVPALWSEVNRYGQNGDFTRALKTVNKILQINKDDVTALHCKVVCLIQNGSFKEALNVINTHTKVLANNSLSFEKAYCEYRLNRIENALKTIESANQQTDKLKELYGQVLYRLERYDECLAVYRDLVRNSQDDYDEERKTNLSAVVAAQSNWEKVVPENLGLQEGTHELCYNTACALIGQGQLNQAMKILQKAEDLCRRSLSEDTDGTEEDPQAELAIIHGQMAYILQLQGRTEEALQLYNQIIKLKPTDVGLLAVIANNIITINKDQNVFDSKKKVKLTNAEGVEFKLSKKQLQAIEFNKALLAMYTNQAEQCRKISASLQSQSPEHLLPVLIQAAQLCREKQHTKAIELLQEFSDQHPENAAEIKLTMAQLKISQGNISKACLILRSIEELKHKPGMVSALVTMYSHEEDIDSAIEVFTQAIQWYQNHQPKSPAHLSLIREAANFKLKYGRKKEAISDLQQLWKQNPKDIHTLAQLISAYSLVDPEKAKALSKHLPSSDSMSLKVDVEALENSAGATYIRKKGGKVTGDSQPKEQGQGDLKKKKKKKKGKLPKNYDPKVTPDPERWLPMRERSYYRGRKKGKKKDQIGKGTQGATAGASSELDASKTVSSPPTSPRPGSAATVSASTSNIIPPRHQKPAGAPATKKKQQQKKKKGGKGGW
Take B4: the binding entry is “binds” in assay [4] and “binds weakly” in assay [2].

B5: MOGS (protein, UniProt Q13724 1-837)
chain: MARGERRRRAVPAEGVRTAERAARGGPGRRDGRGGGPRSTAGGVALAVVVLSLALGMSGRWVLAWYRARRAVTLHSAPPVLPADSSSPAVAPDLFWGTYRPHVYFGMKTRSPKPLLTGLMWAQQGTTPGTPKLRHTCEQGDGVGPYGWEFHDGLSFGRQHIQDGALRLTTEFVKRPGGQHGGDWSWRVTVEPQDSGTSALPLVSLFFYVVTDGKEVLLPEVGAKGQLKFISGHTSELGDFRFTLLPPTSPGDTAPKYGSYNVFWTSNPGLPLLTEMVKSRLNSWFQHRPPGAPPERYLGLPGSLKWEDRGPSGQGQGQFLIQQVTLKIPISIEFVFESGSAQAGGNQALPRLAGSLLTQALESHAEGFRERFEKTFQLKEKGLSSGEQVLGQAALSGLLGGIGYFYGQGLVLPDIGVEGSEQKVDPALFPPVPLFTAVPSRSFFPRGFLWDEGFHQLVVQRWDPSLTREALGHWLGLLNADGWIGREQILGDEARARVPPEFLVQRAVHANPPTLLLPVAHMLEVGDPDDLAFLRKALPRLHAWFSWLHQSQAGPLPLSYRWRGRDPALPTLLNPKTLPSGLDDYPRASHPSVTERHLDLRCWVALGARVLTRLAEHLGEAEVAAELGPLAASLEAAESLDELHWAPELGVFADFGNHTKAVQLKPRPPQGLVRVVGRPQPQLQYVDALGYVSLFPLLLRLLDPTSSRLGPLLDILADSRHLWSPFGLRSLAASSSFYGQRNSEHDPPYWRGAVWLNVNYLALGALHHYGHLEGPHQARAAKLHGELRANVVGNVWRQYQATGFLWEQYSDRDGRGMGCRPFHGWTSLVLLAMAEDY
Turning to B5, the binding entry in assay [3], in assay [4], in assay [1] and in assay [2] was “binds” each time.

B6: SRα (protein, UniProt P08240 1-638)
chain: MLDFFTIFSKGGLVLWCFQGVSDSCTGPVNALIRSVLLQERGGNNSFTHEALTLKYKLDNQFELVFVVGFQKILTLTYVDKLIDDVHRLFRDKYRTEIQQQSALSLLNGTFDFQNDFLRLLREAEESSKIRAPTTMKKFEDSEKAKKPVRSMIETRGEKPKEKAKNSKKKGAKKEGSDGPLATSKPVPAEKSGLPVGPENGVELSKEELIRRKREEFIQKHGRGMEKSNKSTKSDAPKEKGKKAPRVWELGGCANKEVLDYSTPTTNGTPEAALSEDINLIRGTGSGGQLQDLDCSSSDDEGAAQNSTKPSATKGTLGGMFGMLKGLVGSKSLSREDMESVLDKMRDHLIAKNVAADIAVQLCESVANKLEGKVMGTFSTVTSTVKQALQESLVQILQPQRRVDMLRDIMDAQRRQRPYVVTFCGVNGVGKSTNLAKISFWLLENGFSVLIAACDTFRAGAVEQLRTHTRRLSALHPPEKHGGRTMVQLFEKGYGKDAAGIAMEAIAFARNQGFDVVLVDTAGRMQDNAPLMTALAKLITVNTPDLVLFVGEALVGNEAVDQLVKFNRALADHSMAQTPRLIDGIVLTKFDTIDDKVGAAISMTYITSKPIVFVGTGQTYCDLRSLNAKAVVAALMKA
As for B6, the binding entry in assay [3], in assay [4], in assay [1] and in assay [2] was “binds” throughout.
